Data from the supplement of paper PMC12819154, “High-throughput peptide-centric local stability assay extends protein–ligand identification to membrane proteins, tissues and bacteria” (Nature Structural & Molecular Biology, 2025).
The list shows a part of the results. Small differences around the control level are noise.

Chains of the proteins cited; added tags and fusions are not shown. Lines headed by an entry give the natural chain unless they say otherwise; changes in a name come on top.
UniProt Q9EQY0: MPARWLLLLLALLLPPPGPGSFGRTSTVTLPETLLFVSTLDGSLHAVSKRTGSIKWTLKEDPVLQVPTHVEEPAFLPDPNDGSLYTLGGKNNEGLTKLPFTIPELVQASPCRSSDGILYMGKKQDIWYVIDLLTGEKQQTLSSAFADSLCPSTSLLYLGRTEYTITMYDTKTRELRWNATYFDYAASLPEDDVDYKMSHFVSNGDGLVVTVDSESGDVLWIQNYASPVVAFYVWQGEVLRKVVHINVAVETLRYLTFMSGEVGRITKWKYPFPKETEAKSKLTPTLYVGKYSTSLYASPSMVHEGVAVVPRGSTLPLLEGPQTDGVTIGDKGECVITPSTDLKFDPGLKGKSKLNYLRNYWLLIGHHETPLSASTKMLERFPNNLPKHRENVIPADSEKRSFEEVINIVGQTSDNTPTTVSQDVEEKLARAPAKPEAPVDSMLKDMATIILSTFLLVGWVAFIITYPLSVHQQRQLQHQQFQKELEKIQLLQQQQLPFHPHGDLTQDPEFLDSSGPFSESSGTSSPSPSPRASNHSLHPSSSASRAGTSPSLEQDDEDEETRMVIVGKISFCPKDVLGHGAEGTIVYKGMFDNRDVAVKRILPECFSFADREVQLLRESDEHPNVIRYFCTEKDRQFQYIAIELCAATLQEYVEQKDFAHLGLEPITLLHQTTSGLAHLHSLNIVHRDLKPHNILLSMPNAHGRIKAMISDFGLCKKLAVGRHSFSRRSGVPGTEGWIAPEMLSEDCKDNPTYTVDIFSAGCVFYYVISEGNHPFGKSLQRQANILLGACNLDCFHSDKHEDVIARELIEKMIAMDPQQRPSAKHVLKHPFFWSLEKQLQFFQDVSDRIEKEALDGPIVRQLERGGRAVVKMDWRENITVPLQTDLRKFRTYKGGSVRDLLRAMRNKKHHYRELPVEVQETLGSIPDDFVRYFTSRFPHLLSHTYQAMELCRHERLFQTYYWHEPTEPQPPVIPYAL
UniProt Q9EQQ9: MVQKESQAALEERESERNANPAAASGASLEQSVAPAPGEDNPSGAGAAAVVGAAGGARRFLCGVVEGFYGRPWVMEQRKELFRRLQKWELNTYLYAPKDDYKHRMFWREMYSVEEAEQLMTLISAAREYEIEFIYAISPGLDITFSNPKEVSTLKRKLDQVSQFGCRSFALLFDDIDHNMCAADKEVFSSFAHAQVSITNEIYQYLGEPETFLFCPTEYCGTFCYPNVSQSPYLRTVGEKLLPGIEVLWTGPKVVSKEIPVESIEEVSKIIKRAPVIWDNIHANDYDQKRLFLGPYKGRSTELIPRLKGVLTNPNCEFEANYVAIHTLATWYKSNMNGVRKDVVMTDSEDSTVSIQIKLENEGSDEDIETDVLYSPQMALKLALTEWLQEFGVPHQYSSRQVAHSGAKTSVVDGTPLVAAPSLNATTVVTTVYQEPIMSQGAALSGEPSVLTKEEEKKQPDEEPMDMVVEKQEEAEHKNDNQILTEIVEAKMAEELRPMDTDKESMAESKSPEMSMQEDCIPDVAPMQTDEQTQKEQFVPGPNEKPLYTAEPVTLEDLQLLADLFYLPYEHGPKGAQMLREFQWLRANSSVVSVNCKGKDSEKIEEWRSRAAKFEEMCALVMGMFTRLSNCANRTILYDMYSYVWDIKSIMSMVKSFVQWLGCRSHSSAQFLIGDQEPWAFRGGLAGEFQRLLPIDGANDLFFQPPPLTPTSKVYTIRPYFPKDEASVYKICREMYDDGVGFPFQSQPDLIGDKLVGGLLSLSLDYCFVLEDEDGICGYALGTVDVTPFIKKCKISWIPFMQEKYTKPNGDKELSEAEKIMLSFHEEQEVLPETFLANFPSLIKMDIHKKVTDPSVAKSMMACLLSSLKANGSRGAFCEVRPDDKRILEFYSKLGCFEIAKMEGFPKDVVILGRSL
UniProt Q9ERR7, whole entry: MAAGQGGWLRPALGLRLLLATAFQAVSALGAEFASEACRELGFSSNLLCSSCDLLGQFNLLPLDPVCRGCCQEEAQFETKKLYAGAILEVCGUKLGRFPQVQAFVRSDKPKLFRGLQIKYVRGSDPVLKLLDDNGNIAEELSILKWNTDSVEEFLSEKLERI
UniProt Q9ER41: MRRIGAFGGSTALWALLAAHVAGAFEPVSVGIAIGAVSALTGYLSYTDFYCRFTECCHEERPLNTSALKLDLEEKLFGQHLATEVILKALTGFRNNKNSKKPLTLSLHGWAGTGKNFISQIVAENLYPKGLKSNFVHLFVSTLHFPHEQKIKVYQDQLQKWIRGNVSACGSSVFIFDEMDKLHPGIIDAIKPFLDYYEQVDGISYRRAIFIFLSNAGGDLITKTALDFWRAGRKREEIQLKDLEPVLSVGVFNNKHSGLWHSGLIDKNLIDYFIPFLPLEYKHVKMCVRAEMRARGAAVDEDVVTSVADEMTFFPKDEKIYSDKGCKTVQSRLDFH
UniProt Q9ER99: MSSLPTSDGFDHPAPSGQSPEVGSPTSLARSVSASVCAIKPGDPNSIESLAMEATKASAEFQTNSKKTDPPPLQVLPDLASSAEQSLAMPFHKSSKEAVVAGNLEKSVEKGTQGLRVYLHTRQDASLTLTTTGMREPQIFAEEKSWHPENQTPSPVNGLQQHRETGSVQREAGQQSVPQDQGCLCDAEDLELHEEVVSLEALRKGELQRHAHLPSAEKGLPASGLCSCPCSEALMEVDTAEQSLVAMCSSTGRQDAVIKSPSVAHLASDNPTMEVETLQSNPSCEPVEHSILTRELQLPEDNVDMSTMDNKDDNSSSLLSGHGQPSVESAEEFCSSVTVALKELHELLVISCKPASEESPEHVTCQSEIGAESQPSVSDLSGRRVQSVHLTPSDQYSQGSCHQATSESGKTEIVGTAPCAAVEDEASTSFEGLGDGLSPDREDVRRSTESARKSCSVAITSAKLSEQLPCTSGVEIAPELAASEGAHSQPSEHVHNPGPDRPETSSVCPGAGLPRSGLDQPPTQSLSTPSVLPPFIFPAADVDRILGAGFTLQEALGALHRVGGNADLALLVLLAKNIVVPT
UniProt Q9DD16: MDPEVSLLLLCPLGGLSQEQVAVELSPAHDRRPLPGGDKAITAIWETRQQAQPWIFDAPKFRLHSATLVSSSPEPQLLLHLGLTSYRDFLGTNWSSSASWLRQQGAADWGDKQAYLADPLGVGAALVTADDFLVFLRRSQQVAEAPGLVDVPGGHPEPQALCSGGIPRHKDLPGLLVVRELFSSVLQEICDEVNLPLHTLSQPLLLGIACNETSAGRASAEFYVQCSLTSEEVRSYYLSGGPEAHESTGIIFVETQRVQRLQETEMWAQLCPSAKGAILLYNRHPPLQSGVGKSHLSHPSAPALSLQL
UniProt Q9ERS5: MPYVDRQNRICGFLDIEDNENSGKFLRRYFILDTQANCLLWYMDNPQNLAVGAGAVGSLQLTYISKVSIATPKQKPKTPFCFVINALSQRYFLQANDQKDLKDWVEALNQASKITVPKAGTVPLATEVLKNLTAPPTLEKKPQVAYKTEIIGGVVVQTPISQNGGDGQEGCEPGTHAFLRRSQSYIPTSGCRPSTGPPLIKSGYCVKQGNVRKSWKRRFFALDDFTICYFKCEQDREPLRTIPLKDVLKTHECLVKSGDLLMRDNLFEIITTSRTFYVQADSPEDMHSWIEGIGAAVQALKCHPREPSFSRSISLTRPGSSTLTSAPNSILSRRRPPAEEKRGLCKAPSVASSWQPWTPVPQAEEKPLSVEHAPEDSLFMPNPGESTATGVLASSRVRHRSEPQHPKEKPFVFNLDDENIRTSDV
UniProt Q9EQ28: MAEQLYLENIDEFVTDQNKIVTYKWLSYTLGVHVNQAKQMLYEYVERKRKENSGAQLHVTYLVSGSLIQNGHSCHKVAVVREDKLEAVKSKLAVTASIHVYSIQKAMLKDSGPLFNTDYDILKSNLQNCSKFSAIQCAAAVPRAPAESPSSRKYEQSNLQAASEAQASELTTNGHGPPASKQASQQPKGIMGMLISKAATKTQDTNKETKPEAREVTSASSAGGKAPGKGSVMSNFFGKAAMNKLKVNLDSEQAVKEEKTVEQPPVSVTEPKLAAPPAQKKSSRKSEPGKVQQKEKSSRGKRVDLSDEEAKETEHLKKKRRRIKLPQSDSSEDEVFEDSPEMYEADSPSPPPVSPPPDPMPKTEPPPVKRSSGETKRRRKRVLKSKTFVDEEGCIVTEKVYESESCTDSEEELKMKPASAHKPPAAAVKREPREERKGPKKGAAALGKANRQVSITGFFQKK
UniProt Q9EQ32: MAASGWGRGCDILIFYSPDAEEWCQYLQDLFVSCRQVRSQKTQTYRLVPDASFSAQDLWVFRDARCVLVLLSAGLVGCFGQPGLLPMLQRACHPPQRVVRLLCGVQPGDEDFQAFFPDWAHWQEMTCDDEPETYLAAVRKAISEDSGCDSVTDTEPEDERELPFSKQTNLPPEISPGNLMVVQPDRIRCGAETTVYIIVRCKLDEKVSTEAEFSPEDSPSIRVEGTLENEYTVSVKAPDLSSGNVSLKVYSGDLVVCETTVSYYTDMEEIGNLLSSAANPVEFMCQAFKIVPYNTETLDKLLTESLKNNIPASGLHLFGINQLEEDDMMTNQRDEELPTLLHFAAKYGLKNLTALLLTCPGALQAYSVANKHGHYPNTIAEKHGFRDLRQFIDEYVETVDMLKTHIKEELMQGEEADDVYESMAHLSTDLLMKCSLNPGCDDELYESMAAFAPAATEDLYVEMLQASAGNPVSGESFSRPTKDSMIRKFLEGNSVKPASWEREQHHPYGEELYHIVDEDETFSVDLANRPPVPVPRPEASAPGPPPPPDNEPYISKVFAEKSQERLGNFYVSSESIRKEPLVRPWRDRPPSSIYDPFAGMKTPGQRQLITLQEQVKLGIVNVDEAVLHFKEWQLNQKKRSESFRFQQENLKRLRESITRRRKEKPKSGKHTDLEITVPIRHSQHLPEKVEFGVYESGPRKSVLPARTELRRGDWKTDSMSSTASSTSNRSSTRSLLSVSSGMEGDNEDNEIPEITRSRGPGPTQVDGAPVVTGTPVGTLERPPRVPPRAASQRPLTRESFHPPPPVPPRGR
UniProt Q9DC69, whole entry: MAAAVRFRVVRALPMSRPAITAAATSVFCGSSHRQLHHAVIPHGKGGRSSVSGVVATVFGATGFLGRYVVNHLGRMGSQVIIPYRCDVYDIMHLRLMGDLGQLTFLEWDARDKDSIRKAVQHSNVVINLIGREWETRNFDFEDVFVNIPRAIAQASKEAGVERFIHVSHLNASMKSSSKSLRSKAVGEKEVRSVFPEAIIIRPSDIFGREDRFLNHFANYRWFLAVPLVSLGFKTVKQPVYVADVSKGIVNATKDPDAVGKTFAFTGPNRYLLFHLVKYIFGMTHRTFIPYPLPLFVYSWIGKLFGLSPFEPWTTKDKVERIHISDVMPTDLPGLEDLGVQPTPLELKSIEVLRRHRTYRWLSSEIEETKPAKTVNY
UniProt Q9DC63: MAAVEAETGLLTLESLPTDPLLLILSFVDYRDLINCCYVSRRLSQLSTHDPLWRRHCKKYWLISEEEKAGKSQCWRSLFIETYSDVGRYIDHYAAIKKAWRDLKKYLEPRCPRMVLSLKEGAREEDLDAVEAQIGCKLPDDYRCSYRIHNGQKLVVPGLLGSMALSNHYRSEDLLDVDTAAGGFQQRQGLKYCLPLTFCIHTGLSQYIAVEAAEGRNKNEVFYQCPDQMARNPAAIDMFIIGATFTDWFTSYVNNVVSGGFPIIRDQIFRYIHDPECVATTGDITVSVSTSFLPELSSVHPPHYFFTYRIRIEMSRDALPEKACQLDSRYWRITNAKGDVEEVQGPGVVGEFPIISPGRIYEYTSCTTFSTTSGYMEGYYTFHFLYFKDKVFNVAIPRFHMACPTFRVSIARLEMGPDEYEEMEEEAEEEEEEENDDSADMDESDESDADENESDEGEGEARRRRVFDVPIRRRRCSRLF
UniProt Q9DCU9: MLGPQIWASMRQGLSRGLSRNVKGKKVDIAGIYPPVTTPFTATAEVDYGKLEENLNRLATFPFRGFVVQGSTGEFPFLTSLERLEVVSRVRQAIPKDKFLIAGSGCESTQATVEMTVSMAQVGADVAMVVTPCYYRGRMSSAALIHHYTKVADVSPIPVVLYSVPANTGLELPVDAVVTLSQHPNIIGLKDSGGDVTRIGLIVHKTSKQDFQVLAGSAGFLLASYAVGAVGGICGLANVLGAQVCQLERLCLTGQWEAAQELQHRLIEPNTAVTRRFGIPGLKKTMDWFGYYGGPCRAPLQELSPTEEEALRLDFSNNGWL
UniProt Q9ER80: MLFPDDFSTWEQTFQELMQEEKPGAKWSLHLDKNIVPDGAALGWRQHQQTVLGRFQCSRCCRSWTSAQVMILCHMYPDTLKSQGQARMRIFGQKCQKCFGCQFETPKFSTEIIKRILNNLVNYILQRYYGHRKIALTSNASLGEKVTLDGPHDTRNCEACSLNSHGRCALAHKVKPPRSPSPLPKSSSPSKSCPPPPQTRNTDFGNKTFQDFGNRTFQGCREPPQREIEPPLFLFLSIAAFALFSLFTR

Compound: CN[C@@H]1C[C@H]2O[C@@](C)([C@@H]1OC)n1c3ccccc3c3c4c(c5c6ccccc6n2c5c31)C(=O)NC4 [staurosporine]
Assay: log2 fold change of tryptic peptide abundance, ligand vs vehicle (limited proteolysis) (log2 ratio); higher = more trypsin-susceptible (destabilized)
Conditions: ligand concentration: 20 uM; sample: mouse liver crude lysate; replicate design: treated separately

Target	log2 fold change
UniProt Q9EQP2 (peptide sequence: VYGALMWSLGK, peptide start residue: 232)	-2.53
UniProt Q9DCN7 (peptide sequence: STEGSLHPGDVHIQINSGPK, peptide start residue: 29)	0.165
UniProt Q9EQY0 (peptide sequence: IEKEALDGPIVR, peptide start residue: 849)	0.619
UniProt Q9DBB8 (peptide sequence: AEFGFDLSHIPR, peptide start residue: 152)	-0.37
UniProt Q9DBJ1 (peptide sequence: LVLIRHGESAWNLENR, peptide start residue: 6)	-0.518
UniProt Q9EQQ9 (peptide sequence: KVTDPSVAK, peptide start residue: 850)	-0.653
UniProt Q9DBA9 (peptide sequence: FNHHSAMVLAAGLR, peptide start residue: 306)	0.813
UniProt Q9EQ61 (peptide sequence: KLQLSLPDFRR, peptide start residue: 26)	-0.327
UniProt Q9EQN3 (peptide sequence: SFTGGLGQLAGPGK, peptide start residue: 165)	0.297
UniProt Q9DBW0 (peptide sequence: KAEEDWTGAGRGPIPSK, peptide start residue: 277)	-0.399
UniProt Q9ERR7 (peptide sequence: FPQVQAFVR, peptide start residue: 98)	0.0708
UniProt Q9EQU3 (peptide sequence: KDVVVLVILRPDAHR, peptide start residue: 963)	0.511
UniProt Q9ER41 (peptide sequence: IYSDKGCK, peptide start residue: 320)	0.553
UniProt Q9ER69 (peptide sequence: LANGPSNGSSSR, peptide start residue: 273)	-0.526
UniProt Q9EQK7 (peptide sequence: VPTGLPFIK, peptide start residue: 269)	0.469
UniProt Q9DCJ7 (peptide sequence: EAPENWQTPK, peptide start residue: 185)	0.114

A portion of the results above, for reference:
Target	log2 fold change
UniProt Q9DBJ1 (peptide sequence: LVLIRHGESAWNLENR, peptide start residue: 6)	-0.518
UniProt Q9EQQ9 (peptide sequence: KVTDPSVAK, peptide start residue: 850)	-0.653

Additional records follow:

Target	log2 fold change
UniProt Q9DBG7 (peptide sequence: GTLGGMFGMLK, peptide start residue: 313)	-0.12
UniProt Q9ER99 (peptide sequence: EAVVAGNLEK, peptide start residue: 97)	0.168
UniProt Q9DD16 (peptide sequence: DLPGLLVVR, peptide start residue: 171)	0.623
UniProt Q9EQ09 (peptide sequence: GKIDTLTLK, peptide start residue: 195)	0.247
UniProt Q9DBL1 (peptide sequence: LVEAGRPFIKEASMAK, peptide start residue: 356)	0.23
UniProt Q9ERS5 (peptide sequence: YFLQANDQK, peptide start residue: 91)	0.262
UniProt Q9EQ28 (peptide sequence: VAVVREDKLEAVK, peptide start residue: 77)	-1
UniProt Q9EQ32 (peptide sequence: HGHYPNTIAEK, peptide start residue: 372)	0.278
UniProt Q9EQI8 (peptide sequence: SLYSDHELR, peptide start residue: 80)	0.065
UniProt Q9DCS2 (peptide sequence: CLIFRKE, peptide start residue: 198)	0.142
UniProt Q9DC69 (peptide sequence: TFAFTGPNR, peptide start residue: 262)	0.346
UniProt Q9DC63 (peptide sequence: LVVPGLLGSMALSNHYR, peptide start residue: 154)	0.345
UniProt Q9DCU9 (peptide sequence: MSSAALIHHYTK, peptide start residue: 139)	-0.0942
UniProt Q9DCY0 (peptide sequence: VYGTVFHINQGNPFK, peptide start residue: 27)	-0.442
UniProt Q9ER80 (peptide sequence: KIALTSNASLGEK, peptide start residue: 133)	0.204
